These are yes or no findings as the source states them, for the method shown. In cells and extracts the contact can be indirect. Some entries that bind do so weakly or less than the wild type.
Biological target: T1, lysosome-associated protein LAMP1 (human (endogenous in U16 muscle cells)) (UniProt P11279)
T1 sequence: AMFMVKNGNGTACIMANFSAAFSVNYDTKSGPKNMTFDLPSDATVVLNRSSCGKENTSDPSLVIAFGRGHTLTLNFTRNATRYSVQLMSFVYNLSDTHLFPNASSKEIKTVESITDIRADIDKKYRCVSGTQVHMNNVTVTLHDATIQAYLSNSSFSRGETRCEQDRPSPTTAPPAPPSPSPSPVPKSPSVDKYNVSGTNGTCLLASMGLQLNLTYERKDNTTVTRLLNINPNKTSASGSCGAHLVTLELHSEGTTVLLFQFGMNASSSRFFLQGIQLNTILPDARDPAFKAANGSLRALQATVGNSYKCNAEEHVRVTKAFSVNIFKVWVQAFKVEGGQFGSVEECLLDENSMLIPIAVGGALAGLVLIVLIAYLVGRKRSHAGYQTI
Test: co-IP; endogenous proteins of parental MT (day 6) lysate, 500 ug protein; anti-eIF3f or anti-LAMP1 antibody or rabbit IgG isotype overnight at 4 C, Protein G/Protein A Dynabeads; lysis buffer 10% glycerol, 50 mM Tris-HCl pH 7.5, 150 mM NaCl, 1% Triton X-100, 1 mM EDTA; Western blot

Amino acid sequences for entries named in this document (tags omitted).
UniProt O00303: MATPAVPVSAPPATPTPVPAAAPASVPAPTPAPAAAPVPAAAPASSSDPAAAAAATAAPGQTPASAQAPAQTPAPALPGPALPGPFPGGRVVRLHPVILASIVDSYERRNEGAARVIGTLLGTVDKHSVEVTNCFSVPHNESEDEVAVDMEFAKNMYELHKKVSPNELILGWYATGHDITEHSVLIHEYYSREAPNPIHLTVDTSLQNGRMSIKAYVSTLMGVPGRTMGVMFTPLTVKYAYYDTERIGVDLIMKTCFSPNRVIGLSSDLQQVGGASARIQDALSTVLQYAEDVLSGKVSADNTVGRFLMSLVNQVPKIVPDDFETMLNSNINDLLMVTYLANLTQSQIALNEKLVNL

endogenous eIF3f of parental myotubes (from UniProt O00303 1-357)
binding: binds
